Results as given in PubChem BioAssay AID493014 (National Center for Advancing Translational Sciences (NCATS), 2011).
Among all 340,000 compounds or so, about 170 (0.05%) were called active. Inconclusive results, whose numbers are uncertain, are shown with a selection of clear calls. Calls follow the shape of the dose curve; as a rule, active = well fitted inhibition curve with a large enough effect in the signal ratio, with a control signal flat (not every such curve was filed as active); inconclusive = small, poorly fitted or top-dose-only effect, or effect the other way, or a change in a side signal; inactive = flat fitted curve, though single readings scatter; the % refers to the signal ratio. Potencies of inconclusive entries are doubtful fits and often do not repeat.

assay: qHTS Assay to Find Inhibitors of Chronic Active B-Cell Receptor Signaling; details: ABC-DLBCL IkBa-CBG/CBR reporter, luminescence ratio (green luciferase fused to IkBa over red control in TMD8 lymphoma cells), 4 h; activity change, negative = inhibition: at 46.1 µM (top of the series);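 as to activity change, negative = inhibition: plate controls were basal doxycycline-induced cells for no effect and cells given 10 µM MG132 for full effect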
Procedure, shortened: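 Doxycycline induced both beetle luciferases in TMD8 lymphoma cells; IKK-driven degradation limits the IkappaBalpha-fused green signal, while red luminescence normalises for cell number and nonspecific effects. Compounds tested up to 46 uM, 4 hrs.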
Potency is read from the fitted curve at half-maximal effect.

| Compound | activity change, negative = inhibition | Potency |
| --- | --- | --- |
| COc1cccc(CCc2nnc(CCC(=O)NCCC3CCCCO3)o2)c1 (centres undefined) | inactive |  |
| COc1ccc(NC(=O)Nc2cccc3c2O[C@H](CN(C)S(=O)(=O)c2c(C)noc2C)[C@@H](C)CN([C@H](C)CO)C3=O)cc1 | inconclusive: -4.5% |  |
| COc1ccc(C(c2c(NC(=O)c3ccco3)sc(C)c2C)N2CCOCC2)cc1OC (centres undefined) | inactive |  |
| COCc1[nH]nc2c1C(c1cccc(OC)c1)C(C#N)=C(N)O2 (centres undefined) | inconclusive: -2.17% |  |
| CC(C)c1ccc(NC(=O)COC(=O)COc2ccccc2)cc1 | inconclusive: 4.22% |  |
| CCc1cc([N+](=O)[O-])cc(CC)c1N | inconclusive: -5.24% |  |
| O=C(Nc1ccccc1)c1ccc(CSc2ncccn2)cc1 | inconclusive: -23.7% |  |
| COc1ccc(NC(=O)CCC(=O)c2cccs2)cc1Cl | inconclusive: 9.14% |  |
| Cc1cc(S(=O)(=O)N2CCOCC2)ccc1OCC(=O)NCCCn1ccnc1 | inactive |  |
| CCCCOc1ccc(C(=O)N2CCC(C)CC2)cc1 | inactive |  |
| COc1ccc(-c2cc(C(=O)N(C)CCc3ccc(OC)c(OC)c3)c3ccccc3n2)cc1 | inactive |  |
| COCc1nnc(NC(=O)c2sc3ccccc3c2Cl)s1 | inconclusive: -0.118% |  |
| COC(=O)C1=C(C(=O)OC)[C@@H]2N(C)c3ccc(OC)cc3[C@@]23C[C@@H](C(=O)OC)N(C(=O)C2CCC2)C3=N1 | inconclusive: -4.21% |  |
| CCOC(=O)CN1C(=O)S/C(=C/c2ccco2)C1=O | inconclusive: 6.58% |  |
| NC(=O)CSc1nc2ccccc2n1Cc1ccccc1F | inconclusive: -22.3% |  |
| O=C(Nc1ccc2c(c1)OCO2)Nc1ccc(Br)cn1 | inconclusive: 21.3% |  |
| CCCC(=O)NC(=S)Nc1ccc(S(=O)(=O)Nc2ccc(OCC)cc2)cc1 | inconclusive: -24.9% |  |
| O=C(NCC1CCCO1)c1ccc(COc2ccccc2Br)cc1 (centres undefined) |  | inconclusive: 23.1 µM [falling, partial curve, poor fit] |
| CCOc1ccc(N2C(=O)CC(Sc3ccccc3C(=O)O)C2=O)c([N+](=O)[O-])c1 (centres undefined) | inconclusive: 6.53% |  |
| CCCCSc1ccc(NC(=O)c2cccnc2)cc1 | inconclusive: 7.59% |  |
| Cc1cc(/C=N/NC(=O)C(O)(c2ccccc2)c2ccccc2)c(C)n1-c1cccc(C(=O)O)c1 | inactive |  |
| O=c1c2ccccc2oc2c1oc1ccccc12 | inconclusive: 15.3% |  |
| O=C(NC1CCCCCC1)c1ccc2c(=O)n3c(nc2c1)CCCCC3 |  | inconclusive: 29.1 µM [falling, single point] |
| Cn1nnc(-c2ccc(OCc3ccccc3F)cc2)n1 | inconclusive: 10.7% |  |

Single entries from the entries so far:
In activity change, negative = inhibition, CC(C)c1ccc(NC(=O)COC(=O)COc2ccccc2)cc1 shows inconclusive: 4.22%
In activity change, negative = inhibition, CCOc1ccc(N2C(=O)CC(Sc3ccccc3C(=O)O)C2=O)c([N+](=O)[O-])c1 (centres undefined) shows inconclusive: 6.53%
